Reference: paper PMC6858451, “Rhesus Theta Defensin 1 Promotes Long Term Survival in Systemic Candidiasis by Host Directed Mechanisms” (Scientific Reports, 2019)
Bridge positions count the residues as written; N and C are the ends. Peptide text beside a SMILES is read from it.

Test: RTD-1 plasma pharmacokinetics
Protocol: RTD-1 plasma levels were also analyzed 60 or 240 min after additional daily 5 mg/kg i.p. doses administered up to 6 days.
Single dose PK of RTD-1 was evaluated by quantifying plasma peptide concentrations at intervals following 5 mg/kg bolus injections administered i.v. and i.p. to CD-1 mice. At indicated intervals, plasma was prepared from EDTA-anticoagulated blood collected aseptically by terminal cardiac puncture. Plasma was diluted 1:10 or 1:20 into 5% formic/5% acetonitrile. RTD-1 plasma concentrations were determined by reverse-phase liquid chromatography (XBridge phenyl 3.5 µm column, Waters) on an Acquity H-Class UPLC (Waters) with tandem electrospray mass spectroscopy on a Xevo TQ-S running MassLynx V4.1 (Waters). Quantitative mass spectroscopy was performed by multiple-reaction monitoring transition 417.38 > 517.14, with area under the curve determined by TargetLynx (Waters). Pharmacokinetic modeling of intravenous RTD-1 concentration-time data was performed with ADAPT (version 5) software using the naïve pooled data approach. One- and two-compartment models were evaluated. […] Area under the curve (AUC24) was calculated by taking the average of RTD-1 concentrations at each time point and applying the linear trapezoidal method. Bioavailability (F) for i.p. injection was determined using the ratio of AUCs from i.p. and i.v.

In the case of `CC[C@H](C)[C@@H]1NC(=O)[C@@H]2CSSC[C@H](NC(=O)[C@H](CCCNC(=N)N)NC(=O)[C@@H]3CSSC[C@H](NC1=O)C(=O)N[C@@H]([C@@H](C)O)C(=O)N[C@@H](CCCNC(=N)N)C(=O)NCC(=O)N[C@@H](Cc1ccccc1)C(=O)N3)C(=O)N[C@@H](CC(C)C)C(=O)N[C@H]1CSSC[C@H](NC(=O)[C@H](C(C)C)NC(=O)CNC(=O)[C@H](CCCNC(=N)N)NC(=O)[C@H](CCCNC(=N)N)NC1=O)C(=O)N[C@@H](CCCNC(=N)N)C(=O)N2` [RTD-1, Rhesus theta (θ) defensin-1] (cyclo(GFCRCLCRRGVCRCICTR); disulfide 3-16, 5-14, 7-12 (inferred); ring closure inferred), the “MICs in 50% mouse serum relative to plasma Cmax” value (5 mg/kg i.p.) is reported as “at least 100 fold” and the “Cmax as share of RTD-1 levels required for in vitro antifungal activity in 50% mouse serum” value (efficacious peptide doses) is reported as “less than 1%”.
